Results: article PMC8175309, “Translational CNS Steady-State Drug Disposition Model in Rats, Monkeys, and Humans for Quantitative Prediction of Brain-to-Plasma and Cerebrospinal Fluid-to-Plasma Unbound Concentration Ratios” (The AAPS Journal, 2021)

Tests used:
[1] = in vivo; cited from earlier work
[2] = cynomolgus monkey, in vivo
Procedure: Monkey experiments were conducted internally or at the Drug Safety Research Laboratories in Shin Nippon Biomedical Laboratories via consignment to Axcelead Drug Discovery Partners. […] Detailed dosage regimen for each compound is summarized in Supplemental Table 3. […] Each cassette was assigned to a separate group of monkeys. The vehicle was saline or a mixture of dimethylacetamide and 1,3-butanediol (1:1, v/v). At the end of the 6-h infusion or 1 h after intravenous bolus administration, the monkeys were anesthetized, and whole blood, CSF, and whole brain were collected. Blood was collected using the anticoagulant, heparin sodium, and immediately centrifuged; the plasma was transferred to polypropylene tubes. Then, ketamine hydrochloride (50 mg/mL; 0.2 mL/kg; 10 mg/kg) was intramuscularly administered. […] The residue was reconstituted in dilution solution (mobile phase A/B (7:3, v/v)), and the supernatant was analyzed by LC-MS/MS.
Each sample (50 μL) was mixed with the working solution (the mixture of dimethyl sulfoxide and acetonitrile (2:8, v/v)), and the protein was precipitated by adding 150 μL acetonitrile containing internal standards (5 ng/mL alprenolol and diclofenac). […] The residue was reconstituted in mobile phase A/B (7:3, v/v)), and the supernatant was analyzed by LC-MS/MS. […]

[3] = in vivo; cited from earlier work; remark: listed apart in the source

SMILES: CCn1cc(C(=O)O)c(=O)c2cc(F)c(N3CCN(C)CC3)cc21 [Pefloxacin]
- Kp,uu,CSF Human [1]: 0.743
- Kp,uu,brain Monkey [2]: 0.452
- Kp,uu,brain Rat [3]: 0.199
